# Inconclusive results, whose numbers are uncertain, are shown with a selection of clear calls. The source made the active and inactive calls. The rule behind the calls is not given here.
# Assay: T. cruzi growth inhibition in host cells, dose response, cell-based, plate reader, dry powder, set 2 (AID 652275)
# Details: T. cruzi proliferation in host cells; at 16 µM (top of the series) unless noted
row,SMILES,"activity change, negative = inhibition"
1,CC(C)N1C[C@@H](C)[C@H](CN(C)C(=O)OC(C)(C)C)Oc2c(C(=O)Nc3ccncc3)cccc2C1=O,inconclusive: -30.8%
2,COCCNC(=O)c1cc2c(c(-c3cccc(C#CCN(C)C)c3)n1)[C@H](CCO)N(S(=O)C(C)(C)C)C2 (stereo partly specified),inactive: -35.9%
3,CCOC(=O)c1cc2c(c(-c3cccc(C#CCN(C)C)c3)n1)[C@H](CCO)N(S(=O)C(C)(C)C)C2 (stereo partly specified),inconclusive: 1.11%
4,C[C@@H](CO)N1CC[C@H](CNC(=O)OC(C)(C)C)Oc2c(cccc2[N+](=O)[O-])C1=O,inactive: -13.9%
5,CN(C)CC#Cc1cccc(-c2nc(C(=O)N3CCN(C)CC3)cc3c2[C@H](CCO)N(S(=O)C(C)(C)C)C3)c1 (stereo partly specified),inactive: 1.54%
6,Cc1cccc(-c2ccc([C@H]3[C@H](CO)N4CCCCN(Cc5ccncc5)C[C@@H]34)cc2)c1,inconclusive: 22.6%
7,C[C@H]1CN([C@@H](C)CO)C(=O)c2cccc(NC(=O)c3ccncc3)c2O[C@@H]1CN(C)Cc1c(Cl)cccc1Cl,inconclusive: -11.7%
8,C[C@H]1CN([C@@H](C)CO)C(=O)c2cccc(NC(=O)c3ccncc3)c2O[C@@H]1CN(C)Cc1ccc(Oc2ccccc2)cc1,inconclusive: -10.5%
9,CC(C)N1C[C@H](C)[C@@H](CN(C)Cc2ccc(Cl)c(Cl)c2)Oc2c(C(=O)Nc3ccncc3)cccc2C1=O,inconclusive: -115%
10,CN(C)CC(=O)N1CCCCN2[C@@H](CO)[C@H](c3ccc(-c4cccnc4)cc3)[C@@H]2C1,inconclusive: -107%
11,C[C@@H]1CN([C@@H](C)CO)C(=O)c2cccc(NC(=O)c3ccncc3)c2O[C@H]1CN(C)C,inactive: 18.7%
12,CC(C)N1C[C@H](CN2Cc3ccccc3C2)Oc2c(NC(=O)c3ccncc3)cccc2C1=O,inconclusive: -26.3%
13,CC(C)N1C[C@@H](C)[C@H](CN(C)C(=O)OC(C)(C)C)Oc2c(C(=O)O)cccc2C1=O,inconclusive: -98.4%
14,CC(C)N1C[C@@H](C)[C@H](CN(C)Cc2ccc(Oc3ccccc3)cc2)Oc2c(C(N)=O)cccc2C1=O,inconclusive: -47.5%
15,CC(C)N1C[C@H](C)[C@@H](CN(C)C(=O)OC(C)(C)C)Oc2c(cccc2-c2nn[nH]n2)C1=O,inconclusive: -13.2%
16,CC(C)N1C[C@H](C)[C@@H](CN(C)Cc2ccc(Cl)c(Cl)c2)Oc2c(cccc2-c2nn[nH]n2)C1=O,inconclusive: -148%
17,Cc1cccc(-c2ccc([C@H]3[C@H](CO)N4CCCCN(CCC(F)(F)F)C[C@@H]34)cc2)c1,inconclusive: -17.3%
18,CC(C)N1C[C@H](CN)Oc2c(NC(=O)c3ccncc3)cccc2C1=O,inconclusive: -16%
19,C[C@H]1CN([C@@H](C)CO)C(=O)c2cccc(NC(=O)c3ccncc3)c2O[C@@H]1CN(C)Cc1ccc(Cl)cc1Cl,inconclusive: -84%
20,CNC[C@@H]1Oc2c(C#N)cccc2C(=O)N(C(C)C)C[C@H]1C,inconclusive: 14.6%
21,CC(C)N1CC[C@H](CN(C)Cc2ccc(Oc3ccccc3)cc2)Oc2c(NC(=O)c3ccncc3)cccc2C1=O,inconclusive: -48.1%
22,CC(C)N1CC[C@H](CNCc2ccc(Oc3ccccc3)cc2)Oc2c(NC(=O)c3ccncc3)cccc2C1=O,inconclusive: -39.6%
23,CC(C)N1C[C@@H](CN(C)CCc2ccc(Cl)c(Cl)c2)Oc2c(NC(=O)c3ccncc3)cccc2C1=O,inconclusive: -15.7%
24,CC(C)N1C[C@@H](C)[C@H](CN(C)Cc2ccc(Oc3ccccc3)cc2)Oc2c(C#N)cccc2C1=O,inconclusive: -28.7%
25,Cc1ccc(S(=O)(=O)N(C)C[C@H]2OCCCC[C@@H](C)Oc3ccc(N(C)C)cc3C(=O)N([C@H](C)CO)C[C@@H]2C)cc1,inconclusive: -57.2% [at 18 µM]
26,CN(C)CC#Cc1cccc(-c2nc(C(=O)N3CCN(C)CC3)cc3c2[C@@H](CCO)N(S(=O)C(C)(C)C)C3)c1 (stereo partly specified),inactive: -4.18%

# Structural class: the entries above containing a tert-butyl group
row,SMILES,"activity change, negative = inhibition"
1,CC(C)N1C[C@@H](C)[C@H](CN(C)C(=O)OC(C)(C)C)Oc2c(C(=O)Nc3ccncc3)cccc2C1=O,inconclusive: -30.8%
2,COCCNC(=O)c1cc2c(c(-c3cccc(C#CCN(C)C)c3)n1)[C@H](CCO)N(S(=O)C(C)(C)C)C2 (stereo partly specified),inactive: -35.9%
3,CCOC(=O)c1cc2c(c(-c3cccc(C#CCN(C)C)c3)n1)[C@H](CCO)N(S(=O)C(C)(C)C)C2 (stereo partly specified),inconclusive: 1.11%
4,C[C@@H](CO)N1CC[C@H](CNC(=O)OC(C)(C)C)Oc2c(cccc2[N+](=O)[O-])C1=O,inactive: -13.9%
5,CN(C)CC#Cc1cccc(-c2nc(C(=O)N3CCN(C)CC3)cc3c2[C@H](CCO)N(S(=O)C(C)(C)C)C3)c1 (stereo partly specified),inactive: 1.54%
13,CC(C)N1C[C@@H](C)[C@H](CN(C)C(=O)OC(C)(C)C)Oc2c(C(=O)O)cccc2C1=O,inconclusive: -98.4%
15,CC(C)N1C[C@H](C)[C@@H](CN(C)C(=O)OC(C)(C)C)Oc2c(cccc2-c2nn[nH]n2)C1=O,inconclusive: -13.2%
26,CN(C)CC#Cc1cccc(-c2nc(C(=O)N3CCN(C)CC3)cc3c2[C@@H](CCO)N(S(=O)C(C)(C)C)C3)c1 (stereo partly specified),inactive: -4.18%

# Source: PubChem BioAssay AID652275 (Broad Institute, 2013)
